Experimental data: PubChem BioAssay AID1508597 (Cure First, 2020)
Purpose: 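Knock-downs altering ovarian cancer cell survival with or without PARP inhibitor rucaparib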 (primary screen). System: human ovarian carcinoma lines grown from tumours: OCI-P5x (papillary serous) and OCI-C5x (clear cell). Reagent: siRNA pool against human genes, 1.25 pmol siRNA per well. Timing: 72 h or 96 h, depending on the cell culture. Treatment: rucaparib 20 µM (about IC30) or vehicle, present until read-out. Rucaparib or vehicle: Vehicle. Cell line: OCI-P5x (serous). Detection: 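ATP luminescence measured at 72 or 96 h according to the culture, then normalised and expressed as percent viability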. Reading the numbers: viability, normalised: higher = more viable cells remaining. Hit rule: 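Active when normalised viability falls below 80 percent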. Meaning of the calls: active = viability under 80%; inactive = viability 80% or more.
This is an unselected part of the about 2,100 reagents, in one setting of the screen. 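Calls flag viability under 80% in either arm, not effects specific to rucaparib; the reference for percent is not stated.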 A reagent listed more than once was tested more than once; the source does not tell the runs apart. The record does not give: the 100% reference.

target,technical replicate,"viability, normalised (%)",Call
"MYPOP (Myb related transcription factor, partner of profilin)",1,44,active
"MYPOP (Myb related transcription factor, partner of profilin)",2,39.3,active
"MYPOP (Myb related transcription factor, partner of profilin)",3,42.8,active
TTN (titin),1,95.8,inactive
TTN (titin),2,100,inactive
TTN (titin),3,111,inactive
CLCF1 (cardiotrophin like cytokine factor 1),1,57.1,active
CLCF1 (cardiotrophin like cytokine factor 1),2,48.3,active
CLCF1 (cardiotrophin like cytokine factor 1),3,74.7,active
HUS1 (HUS1 checkpoint clamp component),1,81.4,inactive
HUS1 (HUS1 checkpoint clamp component),2,103,inactive
HUS1 (HUS1 checkpoint clamp component),3,91.7,inactive
DHX9 (DExH-box helicase 9),1,50.4,active
DHX9 (DExH-box helicase 9),1,40,active
DHX9 (DExH-box helicase 9),2,74.3,active
DHX9 (DExH-box helicase 9),2,43.1,active
DHX9 (DExH-box helicase 9),3,48.9,active
DHX9 (DExH-box helicase 9),3,67.7,active
RPS6KL1 (ribosomal protein S6 kinase like 1),1,64.1,active
RPS6KL1 (ribosomal protein S6 kinase like 1),2,63.4,active
RPS6KL1 (ribosomal protein S6 kinase like 1),3,74.4,active
DDX3X (DEAD-box helicase 3 X-linked),1,53,active
DDX3X (DEAD-box helicase 3 X-linked),1,64.8,active
DDX3X (DEAD-box helicase 3 X-linked),2,57,active
DDX3X (DEAD-box helicase 3 X-linked),2,50.5,active
DDX3X (DEAD-box helicase 3 X-linked),3,54.5,active
DDX3X (DEAD-box helicase 3 X-linked),3,50,active
"MMS22L (MMS22 like, DNA repair protein)",1,113,inactive
"MMS22L (MMS22 like, DNA repair protein)",2,95.8,inactive
"MMS22L (MMS22 like, DNA repair protein)",3,92.3,inactive
PHKG1 (phosphorylase kinase catalytic subunit gamma 1),1,44.9,active
PHKG1 (phosphorylase kinase catalytic subunit gamma 1),2,56,active
PHKG1 (phosphorylase kinase catalytic subunit gamma 1),3,47.4,active
ASH1L (ASH1 like histone lysine methyltransferase),1,71.3,active
ASH1L (ASH1 like histone lysine methyltransferase),2,65.6,active
ASH1L (ASH1 like histone lysine methyltransferase),3,75.1,active
TTK (TTK protein kinase),1,68.3,active
TTK (TTK protein kinase),2,62.4,active
TTK (TTK protein kinase),3,59.9,active
GMEB2 (glucocorticoid modulatory element binding protein 2),1,65.2,active
GMEB2 (glucocorticoid modulatory element binding protein 2),2,79.1,active
GMEB2 (glucocorticoid modulatory element binding protein 2),3,77,active
DDX47 (DEAD-box helicase 47),1,51.3,active
DDX47 (DEAD-box helicase 47),2,54.1,active
DDX47 (DEAD-box helicase 47),3,64.1,active

No new results follow: an excerpt of the list.
target,technical replicate,"viability, normalised (%)",Call
HUS1 (HUS1 checkpoint clamp component),3,91.7,inactive
DHX9 (DExH-box helicase 9),1,50.4,active
DHX9 (DExH-box helicase 9),1,40,active
DHX9 (DExH-box helicase 9),2,74.3,active
DHX9 (DExH-box helicase 9),2,43.1,active
DHX9 (DExH-box helicase 9),3,48.9,active
DHX9 (DExH-box helicase 9),3,67.7,active
RPS6KL1 (ribosomal protein S6 kinase like 1),1,64.1,active
RPS6KL1 (ribosomal protein S6 kinase like 1),2,63.4,active

Additional entries follow:
target,technical replicate,"viability, normalised (%)",Call
UNC93B1 (unc-93B1 regulator of TLR signaling),1,65,active
UNC93B1 (unc-93B1 regulator of TLR signaling),2,64.6,active
UNC93B1 (unc-93B1 regulator of TLR signaling),3,83.7,inactive
TDRD5 (tudor domain containing 5),1,74,active
TDRD5 (tudor domain containing 5),2,82.4,inactive
TDRD5 (tudor domain containing 5),3,61.5,active
SMARCAL1 (SNF2 related chromatin remodeling annealing helicase 1),1,52,active
SMARCAL1 (SNF2 related chromatin remodeling annealing helicase 1),1,65.6,active
SMARCAL1 (SNF2 related chromatin remodeling annealing helicase 1),2,83.4,inactive
SMARCAL1 (SNF2 related chromatin remodeling annealing helicase 1),2,49.3,active
SMARCAL1 (SNF2 related chromatin remodeling annealing helicase 1),3,77.3,active
SMARCAL1 (SNF2 related chromatin remodeling annealing helicase 1),3,62,active
WNK3 (WNK lysine deficient protein kinase 3),1,96.2,inactive
WNK3 (WNK lysine deficient protein kinase 3),2,69.7,active
WNK3 (WNK lysine deficient protein kinase 3),3,70.3,active
SMYD1 (SET and MYND domain containing 1),1,52,active
SMYD1 (SET and MYND domain containing 1),2,52,active
SMYD1 (SET and MYND domain containing 1),3,59.8,active
PANK1 (pantothenate kinase 1),1,75.2,active
PANK1 (pantothenate kinase 1),2,70.8,active
PANK1 (pantothenate kinase 1),3,84.1,inactive
SUPV3L1 (Suv3 like RNA helicase),1,41.1,active
SUPV3L1 (Suv3 like RNA helicase),1,65.7,active
SUPV3L1 (Suv3 like RNA helicase),2,75.9,active
SUPV3L1 (Suv3 like RNA helicase),2,30.2,active
SUPV3L1 (Suv3 like RNA helicase),3,50.1,active
SUPV3L1 (Suv3 like RNA helicase),3,70,active
PLG (plasminogen),1,69,active
PLG (plasminogen),2,71.7,active
PLG (plasminogen),3,158,inactive
